The values that follow come from PubChem BioAssay AID2685 (National Center for Advancing Translational Sciences (NCATS), 2010).

Structures are written as SMILES. The list shows a part of the results. Shown are side measurements of this screen, not its main read-out; they come without a call. The list favours compounds with an active or inconclusive main result. Words in brackets tell the shape of the fitted curve; partial curves, single points and poor fits give uncertain potencies.

The assay is described as follows: qHTS Assay for Lipid Storage Modulators in Drosophila S3 Cells.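 As to cell number change: cells counted by Cell Tracker Red CMTPX staining in the red channel.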 The settings on record: BODIPY lipid droplet fluorescence, 18-24 h; for cell number change: measured here: cell count max response, cells fed with added oleic acid. Summed up: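 Drosophila S3 cells got compounds at several concentrations plus oleic acid (400 uM solution). Laser-scanning cytometry with 488 nm excitation read lipid droplets at 500-530 nm and cells at 575-640 nm. Percent activity was relative to 20 uM Triacsin C.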
For orientation: In qHTS, concentration-response curves come from the screen itself.

[1] abbreviates: measured here: lipid fluorescence (Fed channel) AC50, cells fed with added oleic acid.
Where [2] appears, read: measured here: cell number channel AC50, cells fed with added oleic acid.

What is called AC50 is the concentration at which the activity in the assay is half-maximal. Low readings indicate greater potency, high ones weaker potency.

Consider `CCC(c1nnc(SCC(=O)Nc2ccc(C(=O)Nc3ccccc3OC)cc2)o1)N(C)C` (stereo unspecified), for which the half-maximal activity concentration (AC50) under setting [1] is 130 nM [rising, full curve, poor fit].

Turning to `CN1CCCN(C(=O)c2ccc(Cl)cc2)CC1`, the cell number change is -0.275%. The concentration at half-maximal activity (AC50) under setting [1] is 6510 nM [rising, single point].

As for `Cc1ccc(NC(=O)c2nc[nH]c2C(=O)N2CCN(c3ccccc3)CC2)cc1`, the cell number change turned out to be 14.3%. Also, the AC50 under setting [1] was 16400 nM [rising, partial curve].

Regarding `O=C(COC(=O)C1CCN(S(=O)(=O)c2cccs2)CC1)Nc1ccc(F)cc1F`, the cell number change was -2.69%. The AC50 under setting [1] was 29100 nM [rising, single point].

As for `CC(C)CCC(C)NC(=O)C1CCN(S(=O)(=O)/C=C/c2ccccc2)CC1` (stereo unspecified), the cell number change came to 7.66%. In addition, under setting [1], the AC50 is 116 nM [falling, full curve, poor fit].

On to `COc1ccc(C(=O)c2c[nH]c3ccccc23)cc1`, for which the cell number change is -0.255%. Moreover, the AC50 under setting [1] is 920 nM [rising, full curve, poor fit].

`O=C(NCCc1c[nH]c2ccccc12)C(=O)NCC1OCCCN1S(=O)(=O)c1ccc(F)cc1` (stereo unspecified): the cell number change came out at 3.6%. Further, the AC50 under setting [1] was 25900 nM [rising, partial curve].

On to `CCOC(=O)c1ccc(N2N=C(C)/C(=C/C=C/c3ccco3)C2=O)cc1`, for which the cell number change is -28.1%. Further, under setting [1], the concentration at half-maximal activity (AC50) is 20600 nM [falling, partial curve].

Take `CCc1ccccc1NC(=O)CN(C)Cc1c(O)ccc2ccccc12`: the AC50 under setting [1] is 92 nM [rising, full curve, poor fit].

For the compound `Oc1ccc(-c2cn3c(n2)SCC3)cc1O`, the cell number change is 10.7%. Besides, the AC50 under setting [2] is 6510 nM [rising, single point]. Also, under setting [1], the AC50 is 2590 nM [rising, partial curve].

As for `CC(Sc1nnnn1C)C(=O)Nc1ccc(N2CCOCC2)cc1` (stereo unspecified), the cell number change is 11.4%.

Consider `COCc1cc(C)nc(SCC(=O)NCC2CCCO2)c1C#N` (stereo unspecified), for which the cell number change was -15.9%. The AC50 under setting [1] is 3260 nM [falling, partial curve].

For `CCN1CC(c2ccccc2)C(c2ccc(Cl)cc2)=N1` (stereo unspecified), the cell number change was -30.5%. Moreover, under setting [2], the AC50 is 18400 nM [falling, single point].

For `CCOC(=O)C1=CC[C@H]2c3c(c4ccccc4n3C)C[C@H]1N2C`, the cell number change is -15.5%. The AC50 under setting [1] was 14600 nM [falling, partial curve, poor fit].

For `COC(=O)Cc1ccc(NC(=O)c2cccs2)cc1`, the cell number change is 3.51%. The half-maximal activity concentration (AC50) under setting [1] is 29100 nM [falling, partial curve, poor fit].

Take `c1csc(C(c2nnnn2C2CCCC2)N2CCOCC2)c1` (stereo unspecified): the cell number change is -6.28%.

Regarding `CCCCC(=O)NC(Nc1sc2c(c1C(N)=O)CCCC2)(C(=O)OCC)C(F)(F)F` (stereo unspecified), the cell number change was -39.7%. The AC50 under setting [2] was 13000 nM [falling, partial curve]. In addition, the AC50 under setting [1] was 13000 nM [falling, partial curve].

`COCCNS(=O)(=O)c1cc2[nH]c3c(c2cc1C)C(=O)CC(C)(C)C3`: the AC50 under setting [1] was 580 nM [rising, single point].

As for `COc1ccc(C)cc1-n1c(SCC(=O)Nc2cccc(C(=O)O)c2)nc2ccccc2c1=O`, the cell number change is -10.9%. Also, under setting [1], the AC50 is 326 nM [falling, partial curve, poor fit].

Take `COC(=O)C1CCN(S(=O)(=O)CCNC(=O)c2ccc3c(c2)OCO3)CC1`: the cell number change was determined as 9.22%. The AC50 under setting [1] was 146 nM [rising, full curve, poor fit].

As for `CC1=C(C(=O)OCc2ccccc2)C(c2ccc(N3CCOCC3)cc2)NC(=O)N1` (stereo unspecified), the cell number change was -15.9%.

For `CCc1ccccc1N(C(C)=O)c1nc(CN=C=S)cs1`, the cell number change is -44.5%. The AC50 under setting [2] was 29100 nM [falling, single point]. Also, the AC50 under setting [1] was 580 nM [rising, full curve, poor fit].

Turning to `COc1cc2c(C(=O)N3CCN(c4cccc(Cl)c4)CC3)cn(CC(C)C)c(=O)c2cc1OC`, under setting [2], the AC50 was 820 nM [rising, single point].

As to `CCC(=O)Oc1ccc2c(c1)O/C(=C\c1ccco1)C2=O`, the cell number change stood at 27.7%.

As for `O=C1CC(NS(=O)(=O)c2ccccc2)CN1c1ccc2c(c1)OCCO2` (stereo unspecified), the cell number change is -17.2%. The AC50 under setting [2] was 146 nM [falling, full curve, poor fit]. Further, the AC50 under setting [1] was 651 nM [falling, single point].

Regarding `CN(C)c1cc[n+](CC[n+]2ccc(N(C)C)cc2)cc1`, the cell number change stood at 30%. In addition, under setting [2], the AC50 is 1460 nM [rising, partial curve, poor fit]. Besides, the AC50 under setting [1] is 2910 nM [falling, partial curve, poor fit].

Take `COc1ccc(CCNC(=O)C(=O)NCC2CCCN2S(=O)(=O)c2ccc(OC)cc2)cc1` (stereo unspecified): the cell number change was determined as 13.7%. Under setting [1], the AC50 was 5170 nM [rising, full curve, poor fit].

With `CCOC(=O)c1c(C)[nH]c(C(=O)N/N=C/c2ccc(Br)cc2)c1C`, the cell number change is -19.9%. Also, under setting [1], the AC50 was 5800 nM [falling, partial curve].

As to `CN(CC(=O)N(CCO)Cc1ccccc1)S(=O)(=O)c1ccc2c(c1)c(=O)n(C)c(=O)n2C`, the cell number change is -3.54%. Moreover, the AC50 under setting [1] is 8200 nM [falling, partial curve].

For `Cc1ccccc1N1CCN(C2CCCN(C(=O)CCC(F)(F)F)C2)CC1` (stereo unspecified), the cell number change amounted to 12.4%. Moreover, the AC50 under setting [2] is 4.61 nM [rising, full curve, poor fit].

As for `COc1ccc(S(=O)(=O)CCC(=O)N2CC(=O)N(CCc3ccccc3)C(=O)C2)cc1`, the cell number change turned out to be 6.69%. The half-maximal activity concentration (AC50) under setting [1] is 1460 nM [falling, full curve].

Consider `O=C(CN(C(=O)c1csnn1)c1ccc2c(c1)OCCO2)NCc1ccc(F)cc1`, for which the cell number change is -22.9%. Besides, the half-maximal activity concentration (AC50) under setting [1] is 206 nM [rising, single point].

As for `O=C(NCc1cccs1)C1CCCN1C(=O)Nc1cccc(Cl)c1` (stereo unspecified), the cell number change was -27.9%. The AC50 under setting [1] was 20600 nM [falling, single point].

Take `COc1ccc(C(C)C)cc1S(=O)(=O)n1cnc(C)c1`: under setting [2], the AC50 was 2590 nM [rising, partial curve].

Consider `Cc1cc(=O)n2nc(N3CCC(C(=O)NCc4cccc(Br)c4)CC3)sc2n1`, for which the cell number change is -15.3%. Also, the AC50 under setting [1] is 13000 nM [rising, partial curve].

Take `NC1(N)OC(CN2C(=O)c3ccccc3C2=O)CS1` (stereo unspecified): the cell number change was determined as 17.5%. Besides, under setting [1], the AC50 was 651 nM [rising, full curve, poor fit].

As to `O=C(COC(=O)c1c[nH]c2ccccc12)NC1CCCC1`, the cell number change was found to be 16%.

Take `O=C(c1nn2c(C(F)(F)F)cc(-c3cccs3)nc2c1Br)N1CCCc2ccccc21`: the cell number change came to 4.93%. Also, the AC50 under setting [1] was 291 nM [rising, full curve, poor fit].
